The target in data set [1] is T1, Cyp33-WLF (RRM) W101A,L102A,F105A (human) (UniProt Q9UNP9).
T1 sequence (looked up): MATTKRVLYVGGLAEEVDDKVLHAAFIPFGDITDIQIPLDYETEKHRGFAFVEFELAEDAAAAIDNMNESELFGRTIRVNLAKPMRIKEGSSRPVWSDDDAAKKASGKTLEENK
The experiment in a line: ITC. The conditions noted are these: structures of complexes: 40 mM KCl, 20 mM KH2PO4 pH 7.0, 310.15 K; recombinant protein; residues 1-114; protein details: AGH N-terminal after intein cleavage.

Data set [2] deals with T1, Cyp33-WLF (RRM) W101A,L102A,F105A (human). The experiment in a line: NMR titration. The conditions noted are these: NMR titrations: 20 mM KHPO4 pH 7, 40 mM KCl, 1 mM DTT; recombinant protein; residues 1-114; protein details: AGH N-terminal after intein cleavage.

The exact form of at least one protein or probe is not confirmed. Tags and fusion partners may be left off the protein sequences shown.

In the case of UAAUGU [UAAUGU RNA], the Kd (usually a measure of binding affinity in units of concentration) in data set [1] is 70 µM; in data set [2], 80 µM.

The values above are taken from paper PMC10115415.
